Assay results taken from article PMC4923905.
No constants are given. Whether binding was seen depends on the method and setting. For part of these data: In cells and extracts the contact can be indirect. Some binding calls cover weakened binding; strength is not graded here. For part of these data: Sequences can lack the tags named with a protein. Each block holds one binder with its values, some of them ahead of it.

Assays:
[1] = biological target: T1, MPK8-cEYFP (Arabidopsis thaliana) (UniProt Q9LM33); assay: split reporter; BiFC with nEYFP(1-174) and cEYFP(175-end) fusions co-infiltrated by Agrobacterium EHA105 into N. benthamiana leaves; observed after 2-3 days
T1 sequence: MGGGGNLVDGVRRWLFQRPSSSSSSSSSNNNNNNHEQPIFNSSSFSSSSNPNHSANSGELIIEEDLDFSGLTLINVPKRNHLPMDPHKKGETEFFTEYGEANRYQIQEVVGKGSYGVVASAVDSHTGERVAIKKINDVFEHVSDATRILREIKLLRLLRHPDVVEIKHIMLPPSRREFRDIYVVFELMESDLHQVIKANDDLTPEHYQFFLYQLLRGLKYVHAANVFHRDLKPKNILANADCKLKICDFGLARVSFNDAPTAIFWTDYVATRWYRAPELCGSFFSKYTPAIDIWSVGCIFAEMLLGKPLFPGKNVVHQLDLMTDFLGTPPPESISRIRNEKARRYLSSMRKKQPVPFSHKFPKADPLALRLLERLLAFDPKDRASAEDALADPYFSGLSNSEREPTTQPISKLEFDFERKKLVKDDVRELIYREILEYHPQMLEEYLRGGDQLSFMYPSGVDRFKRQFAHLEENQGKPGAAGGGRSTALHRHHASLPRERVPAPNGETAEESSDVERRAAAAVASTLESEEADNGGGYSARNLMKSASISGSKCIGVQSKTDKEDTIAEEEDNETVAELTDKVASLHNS

[2] = biological target: T2, nEYFP-MPK8 (Arabidopsis thaliana) (UniProt Q9LM33); assay: as above
T2 sequence: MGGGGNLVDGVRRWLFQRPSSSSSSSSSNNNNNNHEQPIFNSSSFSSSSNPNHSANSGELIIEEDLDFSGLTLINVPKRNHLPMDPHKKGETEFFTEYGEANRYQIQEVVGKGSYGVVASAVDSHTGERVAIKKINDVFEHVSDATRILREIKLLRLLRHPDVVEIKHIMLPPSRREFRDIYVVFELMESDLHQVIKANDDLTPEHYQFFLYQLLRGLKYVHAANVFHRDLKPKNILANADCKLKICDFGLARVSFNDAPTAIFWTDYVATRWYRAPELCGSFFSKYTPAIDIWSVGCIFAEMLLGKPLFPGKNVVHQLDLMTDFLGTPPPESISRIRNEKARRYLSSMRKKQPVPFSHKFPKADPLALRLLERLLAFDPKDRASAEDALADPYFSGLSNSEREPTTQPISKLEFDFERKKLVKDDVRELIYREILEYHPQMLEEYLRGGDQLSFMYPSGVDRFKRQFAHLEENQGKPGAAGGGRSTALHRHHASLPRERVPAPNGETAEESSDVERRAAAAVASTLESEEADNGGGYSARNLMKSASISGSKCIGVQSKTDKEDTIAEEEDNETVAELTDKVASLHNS

[3] = biological target: T3, BD-MPK8 (mitogen-activated protein kinase 8 fused to the GAL4 binding domain) (Arabidopsis thaliana) (UniProt Q9LM33); assay: two-hybrid; Matchmaker GAL4-based system, yeast strain AH109; AD-LSF2 (pGAD424) with BD-MPK8 (pGBT9); SD/-Leu/-Trp/-His with 20 mM 3-AT
T3 sequence: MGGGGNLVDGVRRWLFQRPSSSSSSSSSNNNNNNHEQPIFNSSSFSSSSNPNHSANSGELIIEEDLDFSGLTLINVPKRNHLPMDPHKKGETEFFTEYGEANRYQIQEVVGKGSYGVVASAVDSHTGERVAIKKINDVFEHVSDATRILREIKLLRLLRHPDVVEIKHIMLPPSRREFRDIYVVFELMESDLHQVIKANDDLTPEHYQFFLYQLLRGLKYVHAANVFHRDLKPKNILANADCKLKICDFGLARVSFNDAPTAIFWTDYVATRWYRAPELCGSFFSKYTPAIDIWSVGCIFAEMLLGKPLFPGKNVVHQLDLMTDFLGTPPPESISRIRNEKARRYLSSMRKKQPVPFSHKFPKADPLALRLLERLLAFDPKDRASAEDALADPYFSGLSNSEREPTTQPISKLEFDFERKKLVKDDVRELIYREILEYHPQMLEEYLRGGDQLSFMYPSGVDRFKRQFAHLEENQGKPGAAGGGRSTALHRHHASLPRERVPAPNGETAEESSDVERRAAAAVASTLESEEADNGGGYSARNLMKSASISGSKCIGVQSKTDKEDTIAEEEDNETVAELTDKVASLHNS

binding [1]: binds
B1: nEYFP-LSF2 (enzyme, UniProt Q9SRK5 62-282)
chain: LSSKNKMEDYNTAMKRLMRSPYEYHHDLGMNYTLIRDELIVGSQPQKPEDIDHLKQEQNVAYILNLQQDKDIEYWGIDLDSIVRRCKELGIRHMRRPAKDFDPLSLRSQLPKAVSSLEWAVSEGKGRVYVHCSAGLGRAPGVSIAYMYWFCDMNLNTAYDTLVSKRPCGPNKGAIRGATYDLAKNDPWKEPFESLPENAFEDIADWERKLIQERVRALRGT

binding [2]: binds
B2: LSF2-cEYFP (enzyme, UniProt Q9SRK5 62-282)
chain: LSSKNKMEDYNTAMKRLMRSPYEYHHDLGMNYTLIRDELIVGSQPQKPEDIDHLKQEQNVAYILNLQQDKDIEYWGIDLDSIVRRCKELGIRHMRRPAKDFDPLSLRSQLPKAVSSLEWAVSEGKGRVYVHCSAGLGRAPGVSIAYMYWFCDMNLNTAYDTLVSKRPCGPNKGAIRGATYDLAKNDPWKEPFESLPENAFEDIADWERKLIQERVRALRGT

binding [3]: binds
B3: AD-LSF2 (LIKE SEX FOUR2 fused to the GAL4 activation domain) (enzyme, UniProt Q9SRK5 1-282)
chain: MSVIGSKSCIFSVARYTRENEKSSCFTSINKKSSLDLRFPRNLAGVSCKFSGENPGTNGVSLSSKNKMEDYNTAMKRLMRSPYEYHHDLGMNYTLIRDELIVGSQPQKPEDIDHLKQEQNVAYILNLQQDKDIEYWGIDLDSIVRRCKELGIRHMRRPAKDFDPLSLRSQLPKAVSSLEWAVSEGKGRVYVHCSAGLGRAPGVSIAYMYWFCDMNLNTAYDTLVSKRPCGPNKGAIRGATYDLAKNDPWKEPFESLPENAFEDIADWERKLIQERVRALRGT
